The other results are listed elsewhere or left out.
Each sequence was assayed against T1, OsSMF1 (Oryza sativa, UniProt Q6ZLB0 1-436) (assay: protein-binding microarray (RPBM); PBS, 2% BSA, 51.3 ng/ul salmon testes DNA, 50 uM zinc acetate, 200 nM TF, 25 C, 1 h; high values mean tight binding). Settings: protein: recombinant; tags: N-terminal polyhistidine and DsRed monomer fusion (pET32a); chain copies: 2; label: CyDye5-dUTP incorporated in the synthesized complementary strand; 3' TTTTT single-stranded linker to array surface; dsDNA, one strand shown.
T1 sequence: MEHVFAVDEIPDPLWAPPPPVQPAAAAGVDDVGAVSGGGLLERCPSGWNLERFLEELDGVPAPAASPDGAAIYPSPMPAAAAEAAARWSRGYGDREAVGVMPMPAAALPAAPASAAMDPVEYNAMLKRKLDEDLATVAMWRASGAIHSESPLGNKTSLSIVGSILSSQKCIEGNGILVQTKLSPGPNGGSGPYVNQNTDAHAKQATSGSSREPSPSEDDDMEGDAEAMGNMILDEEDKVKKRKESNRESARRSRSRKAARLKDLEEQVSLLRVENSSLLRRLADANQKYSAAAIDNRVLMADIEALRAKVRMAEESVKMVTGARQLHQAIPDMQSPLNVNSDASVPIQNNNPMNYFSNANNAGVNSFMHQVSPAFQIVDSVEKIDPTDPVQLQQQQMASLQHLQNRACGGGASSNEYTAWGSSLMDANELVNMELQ
In short: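 For the binding signal, per-feature fluorescence intensity was read in arbitrary units on an Axon 4000B scanner. Before scanning, a 2% BSA-blocked custom Agilent array made double-stranded with Cy5-dUTP was washed after 1 h at 25 °C with 200 nM protein and 50 µM zinc acetate. The proteins were Ni–NTA-purified transcription factors with N-terminal polyhistidine and DsRed fusions, expressed in E. coli BL21-CodonPlus.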

Sequence	binding signal
GGCAACAATCGAGGCATGGGTGGCATACTGGCATAGCTCCCGGAGTCACCTAGTGCAG	3270 fluorescence intensity (a.u.)
TGCTGATCCGTCGCATGTCACGCCGCCACCAAGACCCACCCGGAGTCACCTAGTGCAG	4490 fluorescence intensity (a.u.)
AATTCAATTTAAAATATTTTAAGCTAATACTTAATTAATCCGGAGTCACCTAGTGCAG	21900 fluorescence intensity (a.u.)
TTCAGGTCAGGTGAGAGCACTTCCTCCCTGTCATTATCCGCGGAGTCACCTAGTGCAG	3830 fluorescence intensity (a.u.)
AAATAAACCTATAGCAAGCAATATACACATCATTGTCTTACGGAGTCACCTAGTGCAG	4710 fluorescence intensity (a.u.)
AAACTCACATTTGATTGCAATTTGCTGCAACGTGTACAGTCGGAGTCACCTAGTGCAG	4260 fluorescence intensity (a.u.)
CATCGCTCCATCTCATTTTCATTGTTCATCTGTTTGCATTCGGAGTCACCTAGTGCAG	21700 fluorescence intensity (a.u.)
TTATAGAGCATATGGTAATTGTGCATCATATGATATTAGGCGGAGTCACCTAGTGCAG	15600 fluorescence intensity (a.u.)
ATGTTCTACTAGTACACACTATCGTGTTGCAAATGCTTGGCGGAGTCACCTAGTGCAG	32700 fluorescence intensity (a.u.)
TCTGTTCGAACCCTTGTTGACGCTGTAGGTTTCCCATTCCCGGAGTCACCTAGTGCAG	3990 fluorescence intensity (a.u.)
GAGAGGAGAGGGAGAGAAGGGAGGCGCGTGATTCGATCGACGGAGTCACCTAGTGCAG	4850 fluorescence intensity (a.u.)
CACGTCGTACCCACTCGTCCTCGGCTCCTCGCGCGGTCACCGGAGTCACCTAGTGCAG	3400 fluorescence intensity (a.u.)
GGGTTAAACAACGGAAAGAAAAGGCTGACGCGTGGGTCCCCGGAGTCACCTAGTGCAG	3910 fluorescence intensity (a.u.)
AGTCACACTCCGGCCCGCACTTACGTCATAATCCCGTTCCCGGAGTCACCTAGTGCAG	9050 fluorescence intensity (a.u.)
TTTGTTTTCTACTTAATTGACCATACTCCAGTCCTACTCCCGGAGTCACCTAGTGCAG	38000 fluorescence intensity (a.u.)
CATCTAATTTAAATTTAAATGTTTTAAAAGATAGAGACGTCGGAGTCACCTAGTGCAG	24500 fluorescence intensity (a.u.)
CACCTCGTCGCCGGGCTCCCACTGCGGCCTCGTCGCCGGCCGGAGTCACCTAGTGCAG	24500 fluorescence intensity (a.u.)
TGGGAGTAATGCGATACCACATCACCATTTACTCCTATTGCGGAGTCACCTAGTGCAG	3210 fluorescence intensity (a.u.)
TCCTTGCTCCATCAGTATTACACCACCCAACACAAGCTCACGGAGTCACCTAGTGCAG	30400 fluorescence intensity (a.u.)
GCACCCACTTAGCGAGCTTCACGCGCACGTACGCATGGCACGGAGTCACCTAGTGCAG	3400 fluorescence intensity (a.u.)
CAATTGGGATCGCGACTCACGTTCTGACTAAGGTACTGGCCGGAGTCACCTAGTGCAG	5320 fluorescence intensity (a.u.)
TAGGGATGTGACCGGTTGACGCGTTGGATGAAGAGGAAGTCGGAGTCACCTAGTGCAG	4760 fluorescence intensity (a.u.)
GTACTCCGTACTAGTAGTGGCACTCAATGTTCGGTATCTGCGGAGTCACCTAGTGCAG	50200 fluorescence intensity (a.u.)
GGAGGTTAAATGCTGTGGCAAAATAGTTTGGAGGAGCGAACGGAGTCACCTAGTGCAG	3300 fluorescence intensity (a.u.)
ACGAGCCCACGAGGTTGATGACGACGAAGCCGAAGAGTTGCGGAGTCACCTAGTGCAG	4660 fluorescence intensity (a.u.)
GGAAGTGCTCTCCCATTTTCTATCATCAGAAAGGTATAGGCGGAGTCACCTAGTGCAG	3750 fluorescence intensity (a.u.)
AGCGCCGGCCATAGCTCGCGGGGTGTTGCAATCGCTGCTACGGAGTCACCTAGTGCAG	14500 fluorescence intensity (a.u.)

Retrieved one by one from the list above:
Sequence	binding signal
AGTCACACTCCGGCCCGCACTTACGTCATAATCCCGTTCCCGGAGTCACCTAGTGCAG	9050 fluorescence intensity (a.u.)
TCCTTGCTCCATCAGTATTACACCACCCAACACAAGCTCACGGAGTCACCTAGTGCAG	30400 fluorescence intensity (a.u.)
GCACCCACTTAGCGAGCTTCACGCGCACGTACGCATGGCACGGAGTCACCTAGTGCAG	3400 fluorescence intensity (a.u.)

More entries follow.

Sequence	binding signal
CAACGAAATATATGGTGGGGACACGTGGCAGCACAAGGGCCGGAGTCACCTAGTGCAG	29100 fluorescence intensity (a.u.)
TACTAATGTTATTACACGTATTGCCATTTGATTTATTGTTCGGAGTCACCTAGTGCAG	6090 fluorescence intensity (a.u.)
CTCCACACACCCCGCCACATCCGCCTCTGCGCGACTGCGCCGGAGTCACCTAGTGCAG	3740 fluorescence intensity (a.u.)
ACCGCCCGGCAGAAAAGCCTCTTCAGCCTCCGCCACGCAACGGAGTCACCTAGTGCAG	3370 fluorescence intensity (a.u.)
ACAGCCGGGCGGCTGCCACGCTAGCTGCCTCTCCCCTTCCCGGAGTCACCTAGTGCAG	4840 fluorescence intensity (a.u.)
GAACCCTAACTGCGCCATCACATCGATCTACCTCCCCTTACGGAGTCACCTAGTGCAG	3650 fluorescence intensity (a.u.)
TAGCTAGGCATAGTGACAACACACTCACTCCCCTCATTTCCGGAGTCACCTAGTGCAG	3640 fluorescence intensity (a.u.)
GGGAGGAAGAATGGTCGGCGTGGGTCCTCGCTTGCACGGACGGAGTCACCTAGTGCAG	3280 fluorescence intensity (a.u.)
GCGCCAGTCAACTAAAATCATGCCATGGCCACACGTAGTCCGGAGTCACCTAGTGCAG	3350 fluorescence intensity (a.u.)
CACAGGCAGGCCTGCAACATGCGTCACGCAGACTTTGATGCGGAGTCACCTAGTGCAG	4140 fluorescence intensity (a.u.)
CTGCTTGTACCAGCATGCCGCTATTGTCGTGCGTGTGACCCGGAGTCACCTAGTGCAG	3680 fluorescence intensity (a.u.)
TGAAACGGAGGGAGTATTATTAATATCTTAAGATGGACGACGGAGTCACCTAGTGCAG	6690 fluorescence intensity (a.u.)
TGACCCAGCAAGCAAGAAACTCCTCCAGCGTCTAGTCACCCGGAGTCACCTAGTGCAG	3830 fluorescence intensity (a.u.)
AACCGCTCCTCCTCCTCTTCTCCGCGTCCCCACCACGTGCCGGAGTCACCTAGTGCAG	3890 fluorescence intensity (a.u.)
GTAGGGAACACACGTATAACTTTCTGACAGTCACACACTGCGGAGTCACCTAGTGCAG	3300 fluorescence intensity (a.u.)
TGAGTACTCCTGGTCTACTCCATTGCGTGTGGCTTGTCTGCGGAGTCACCTAGTGCAG	3940 fluorescence intensity (a.u.)
TGGGCCGCCCCTGGAGGCAAGGTAGCCGGATCCGTCATGTCGGAGTCACCTAGTGCAG	3510 fluorescence intensity (a.u.)
GGACCTAGAGTACCGAGTGAGGATTATCATATAATAGATTCGGAGTCACCTAGTGCAG	19300 fluorescence intensity (a.u.)
TCACCTTTGACGGGTCATACGGGATGCCGTCATCGGTGAGCGGAGTCACCTAGTGCAG	3180 fluorescence intensity (a.u.)
TCTCTTCATAATGATATTGCCATGTCATCAAATTTGTTTGCGGAGTCACCTAGTGCAG	13200 fluorescence intensity (a.u.)
AATTTCTTCAAACAGATAAGGATATACGTGGCGATAGTTTCGGAGTCACCTAGTGCAG	5050 fluorescence intensity (a.u.)
CCCGCCAGACCCGATGGAGACTACTTCCTCTCCATTTGATCGGAGTCACCTAGTGCAG	5180 fluorescence intensity (a.u.)
AGTGCTTTATTTTGCTGATTCATTGTTAAAATTGCCTCTACGGAGTCACCTAGTGCAG	5500 fluorescence intensity (a.u.)
GAGATTAGAGAGAGAGGGAAGGGAACACCGACCCGCATCGCGGAGTCACCTAGTGCAG	4560 fluorescence intensity (a.u.)
GGAGTTGCCCTTAATGGCGGTGACGTCGGATACAGTGCTTCGGAGTCACCTAGTGCAG	9140 fluorescence intensity (a.u.)
CCAATTTGACGTGAAATGTTTAGATGATCTCTTGCCAGTACGGAGTCACCTAGTGCAG	3150 fluorescence intensity (a.u.)
CTGTCGCTGTGCAGACGTTGCTAACACCGGCGGGAATCTTCGGAGTCACCTAGTGCAG	3210 fluorescence intensity (a.u.)
